Assay results as given in US20150133369A1, “PHARMACOKINETIC MODULATION WITH ALISPORIVIR” (priority 2012, published 2015).

Conditions: alisporivir 600 mg BID for 10 days; single 40 mg oral dose of atorvastatin

T1/2 alone versus with alisporivir: similar
SMILES: CC(C)c1c(C(=O)Nc2ccccc2)c(-c2ccccc2)c(-c2ccc(F)cc2)n1CC[C@@H](O)C[C@@H](O)CC(=O)O [atorvastatin, reference compound]
